For at least one entry, the source does not settle the construct or the ends of the probe.
Test system: LcMYB71 (Lonicera caerulea)
Experiment: EMSA
Settings: 100-, 200-, 400-fold unlabeled probe reduces the shift; LightShift Chemiluminescent EMSA Kit (manufacturer's instructions), 6% native PAGE; pH and temperature not stated; recombinant protein; protein details: N-terminal 6xHis; label: biotin 3'-end

Sequence	binding result
CATTTAAAACTCTAACCAAACATATGCGTA (double strand) [P2 (pro2)]	binds
GCTATAATATTGTTTGGTTGGGTTTTTAAA (double strand) [P1 (pro1)]	binds

— article PMC10711284
